Primary screen of a compound library

Each number is a percent effect as filed.
How 0% and 100% were set is not recorded. Most values in the screen are low, and negative values occur.
This is an unselected part of the compounds tested.

A: 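Whole-parasite assay of Trypanosoma brucei over 72 hours; the read-out is not stated. Tested at 30 µM. Direction is inferred from retests: higher values go with stronger inhibition. Values scatter widely below zero; nearly all retest evidence comes from the higher of the two concentrations used. Of about 64,000 compounds tested this way, about 940 (1.5%) reached 50% or more in at least one test.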
B: 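Assay of Toxoplasma gondii numbers, read through their beta-galactosidase reporter with a colour substrate. Tested at 10 µM. The record gives no direction; the compounds picked for IC50 retests had high values, so higher reads as fewer parasites. About 67,000 compounds were tested under these conditions; 0.38% (about 260) showed 50% or more at least once.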
C: 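Cell assay of Leishmania donovani living inside macrophages; the read-out is not stated. Compounds at 30 µM. Direction is inferred from retests: higher values go with stronger inhibition. Of about 69,000 compounds tested this way, about 1,000 (1.5%) reached 50% or more in at least one test.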

COCC(=O)N1CCc2c(nnn2C)C1COCCN1CCCC1.O=C(O)C(F)(F)F (stereo not drawn) read A: 11.84%; B: 7.831%; C: -19.53%.
COc1ccc(-c2noc(CNC(C)Cn3cccn3)n2)c(OC)c1 (stereo not drawn) read A: -4.336%; B: -47.65%; C: 8.961%.
CN(C)c1ncccc1CNC(=O)N1CCCC1c1cccs1 (stereo not drawn) read A: 11.49%; B: -28.65%; C: 0.2569%.
O=C(O)C(F)(F)F.O=C(O)C(F)(F)F.[H][C@@]12CO[C@@H](CNC(=O)c3ccco3)[C@]1([H])CCN(Cc1cnn(C)c1)C2 read A: -31.03%; B: -7.273%; C: 3.513%.
Cc1nnsc1CN1CCCC1c1nc(-c2ccccc2)no1 (stereo not drawn) read B: -6.067%; C: -3.622%.
[H][C@@]12C[C@@H](OCCOC)CN1CCN(C(=O)c1cnccn1)C2 read A: 8.361%; B: 8.974%; C: 28.22%.
O=S(=O)(NCCCn1cncn1)c1ccc2c(c1)CCO2 read A: -43.27%; B: 4.303%; C: 14.29%.
Cc1noc(-c2cnc(NC3CC3)nc2-c2ccco2)c1C read A: 6.694%; B: 28.55%; C: 41.11%.
CC(C)Nc1ccc2nc(C3CCN(C(C)C)CC3)nn2c1.O=C(O)C(F)(F)F read A: 7.076%; B: -0.518%; C: 37.96%.
CCOc1ccc(CN2CCOCC2c2[nH]ncc2C)cc1CO (stereo not drawn) read A: -5.494%; B: -3.637%; C: 15.87%.
CCOCc1nnc(NCc2cccc(C)c2)o1 read A: 4.561%; B: 13.96%; C: 19.62%.
CCn1c(N)nc2cc(C(=O)N3CC(c4ccccn4)C3)cnc21 read A: -11.01%; B: -5.081%; C: 5.889%.
O=C1C(NS(=O)(=O)c2ccc(F)cc2F)CCN1Cc1ccccc1 (stereo not drawn) read B: 15.03%; C: -17.9%.
O=C1NCCCCC1NC(=O)N1CCCc2cc(F)ccc21 (stereo not drawn) read A: -12.33%; B: -6.845%; C: -8.838%.
O=C(NCCOc1ncc(Cl)cc1Cl)NCc1ccncc1 read A: -44.95%; B: -13.16%; C: 5.137%.
CN1CCCCC12Cc1ccccc1CN(C(=O)c1ccccc1)C2 (stereo not drawn) read B: 11.68%; C: 10.82%.
CN(C)c1cc(CNC(=O)Nc2nnc(C3CC3)s2)ccn1 read B: 9.716%; C: 27.35%.
Cc1ccc(-c2ccnc(N(C)CC3CCCN3C)n2)c(C)n1 (stereo not drawn) read A: -0.2223%; B: -16.42%; C: -7.163%.
CC(C)(C)OC(=O)NC1CCC(NC(=O)c2ccc[nH]2)CC1 (stereo not drawn) read A: -59.89%; B: 9.049%; C: 12.33%.
CCN1CCC(CNC(=O)Nc2cccnc2OC)CC1 read A: 3.244%; B: 0.7692%; C: 29.55%.
CCN(CC)c1ccc2ccc(C(=O)N(CCOC)CCOC)cn12.O=C(O)C(F)(F)F read A: -55.08%; B: -5.585%; C: 15.61%.
Cc1nn(-c2ccccc2)nc1C(=O)NCC(c1ccco1)N(C)C (stereo not drawn) read A: -16.17%; B: -8.831%; C: -20.31%.
CCN(CC)c1ncccc1CNCc1cc2ccccc2s1 read A: 11.57%; B: 4.244%; C: 20.22%.
CN(C)C(=O)c1ccc2c(c1)nc(N1CC[C@H](O)C1)n2C read A: -114.4%; B: 7.372%; C: -4.937%.
Cc1cc(NC(=O)NCC(c2ccccc2)N2CCOCC2)n(C)n1 (stereo not drawn) read A: -5.856%; B: -18.16%; C: 18.5%.

Measurements from “University of Dundee, Small-Polar-MMV Screening Library” (2021), ChEMBL document CHEMBL3988442.